No constants are given. Whether binding was seen depends on the method and setting. In cells and extracts the contact can be indirect. Binding calls can cover weak binding; strength is not graded here.
What was measured:
Test in all cases: co-IP; TAP-tagged bait (Hat1, Hat2, Asf1 or Spt2) immunoprecipitated from lysates of yeast cells carrying plasmid-borne 12MYC-Hif1 constructs; blots with anti-MYC and anti-TAP; for Asf1 also a one step co-IP with TEV protease elution (Figure 3E)
Asf1-TAP (S. cerevisiae) = Asf1-TAP (S. cerevisiae) (UniProt P32447)
Hat1-TAP (S. cerevisiae) = Hat1-TAP (S. cerevisiae) (UniProt Q12341)
Hat2-TAP (S. cerevisiae) = target: T1, Hat2-TAP (S. cerevisiae) (UniProt P39984)
T1 sequence: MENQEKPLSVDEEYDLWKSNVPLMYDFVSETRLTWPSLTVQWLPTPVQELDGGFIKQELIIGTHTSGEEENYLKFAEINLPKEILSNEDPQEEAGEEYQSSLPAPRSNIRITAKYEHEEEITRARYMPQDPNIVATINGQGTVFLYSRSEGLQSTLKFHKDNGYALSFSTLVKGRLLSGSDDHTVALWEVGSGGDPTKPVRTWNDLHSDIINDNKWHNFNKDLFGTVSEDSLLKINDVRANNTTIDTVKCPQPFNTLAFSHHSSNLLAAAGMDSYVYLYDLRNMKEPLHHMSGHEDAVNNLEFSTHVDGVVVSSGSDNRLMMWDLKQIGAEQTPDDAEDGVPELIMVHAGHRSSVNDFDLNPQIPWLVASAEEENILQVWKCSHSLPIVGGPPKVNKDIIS

Amino acid sequences for entries named in this document (tags omitted). A change or cut given only in a name is not applied to a line headed by its entry.
UniProt P32447: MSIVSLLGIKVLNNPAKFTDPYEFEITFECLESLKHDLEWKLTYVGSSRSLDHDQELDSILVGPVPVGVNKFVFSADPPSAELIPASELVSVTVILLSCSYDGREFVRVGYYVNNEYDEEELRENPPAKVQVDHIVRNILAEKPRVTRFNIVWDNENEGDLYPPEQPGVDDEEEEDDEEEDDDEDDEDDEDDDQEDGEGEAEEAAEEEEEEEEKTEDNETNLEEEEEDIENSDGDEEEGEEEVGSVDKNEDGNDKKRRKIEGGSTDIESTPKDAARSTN
UniProt Q12341: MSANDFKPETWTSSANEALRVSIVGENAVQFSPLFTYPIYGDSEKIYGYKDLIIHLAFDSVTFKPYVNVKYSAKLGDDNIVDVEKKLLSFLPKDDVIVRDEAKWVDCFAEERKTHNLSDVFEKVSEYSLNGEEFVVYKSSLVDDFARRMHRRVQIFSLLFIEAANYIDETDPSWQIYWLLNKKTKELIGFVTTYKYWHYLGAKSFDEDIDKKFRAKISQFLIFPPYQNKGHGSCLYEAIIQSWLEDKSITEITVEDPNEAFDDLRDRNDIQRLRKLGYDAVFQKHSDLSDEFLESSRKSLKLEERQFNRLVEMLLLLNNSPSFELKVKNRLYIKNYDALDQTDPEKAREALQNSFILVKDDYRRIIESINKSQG
UniProt Q12373: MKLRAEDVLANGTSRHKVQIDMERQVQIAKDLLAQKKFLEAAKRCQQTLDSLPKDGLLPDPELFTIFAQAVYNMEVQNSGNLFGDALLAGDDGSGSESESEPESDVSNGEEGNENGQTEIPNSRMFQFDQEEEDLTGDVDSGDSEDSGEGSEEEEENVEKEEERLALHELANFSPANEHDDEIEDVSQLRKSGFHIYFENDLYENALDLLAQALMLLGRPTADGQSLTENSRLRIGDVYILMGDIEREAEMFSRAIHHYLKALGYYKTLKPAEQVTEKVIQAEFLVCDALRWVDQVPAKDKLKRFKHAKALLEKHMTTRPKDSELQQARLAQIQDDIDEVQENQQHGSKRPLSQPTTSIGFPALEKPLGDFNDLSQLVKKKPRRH

binding (Asf1-TAP (S. cerevisiae)) | binding (Hat1-TAP (S. cerevisiae)) | binding (Hat2-TAP (S. cerevisiae)) | Substance
binds | binds | binds | 12MYC-Hif1 C-terminal deletion mutant lacking the C-terminus including TPR4 (from UniProt Q12373) (domain or fragment)
binds | binds | binds | 12MYC-Hif1 C-terminal deletion mutant lacking the C-terminus until TPR2 (from UniProt Q12373) (domain or fragment)
binds | binds | binds | 12MYC-Hif1 C-terminal deletion mutant lacking the NLS (from UniProt Q12373) (domain or fragment)
binds | binds | binds | 12MYC-Hif1 C-terminal deletion mutant lacking the whole C-terminus until the TPR4 (from UniProt Q12373) (domain or fragment)
binds | binds | binds | 12MYC-Hif1 internal deletion mutant lacking TPR1 (from UniProt Q12373)
– | no binding | no binding | 12MYC-Hif1 internal deletion mutant lacking TPR2 (from UniProt Q12373)
binds | binds | binds | 12MYC-Hif1 internal deletion mutant lacking TPR3 (from UniProt Q12373)
binds | binds | binds | 12MYC-Hif1 internal deletion mutant lacking TPR4 (from UniProt Q12373)
– | no binding | no binding | 12MYC-Hif1 mutant lacking only the acidic region of TPR2 (from UniProt Q12373)

Reference: article PMC5982827
